Test systems include C. auris AR-384; C. auris AR-386; C. auris AR-387.
What all share (test): growth relative to vehicle control (OD600 ratio) (fraction); higher = less inhibition
Conditions in all cases: 24 h

Where a name gives a salt, the structure may show the parent alone. The list shows a part of the results. Many values rest on one well or one pass, so single values are uncertain.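 The strains were three CDC resistance-bank clinical C. auris isolates from clades III, IV and I, cultured in RPMI-1640 at 35°C. Growth was background-corrected OD600 versus vehicle-only wells on the same plate. A hit needed >50% inhibition in two or more strains plus a plate-corrected B-score exceeding 0.1.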

For `COc1ccccc1OCC(O)CN1CCN(CC(=O)Nc2c(C)cccc2C)CC1` (stereo not given) [Ranolazine], the growth was 0.64 in the test on C. auris AR-384 (1 µM); 0.72 in the test on C. auris AR-384 (10 µM); 0.71 in the test with C. auris AR-386 (1 µM); 0.82 in the test with C. auris AR-386 (10 µM); 0.82 with C. auris AR-387 (1 µM); 0.74 in the test on C. auris AR-387 (10 µM).

Consider `C#CCN[C@@H]1CCc2ccccc21` [Rasagiline Mesylate], for which the growth was 0.69 in the test with C. auris AR-384 (1 µM); 0.78 in the test on C. auris AR-384 (10 µM); 0.61 with C. auris AR-386 (1 µM); 1.05 with C. auris AR-386 (10 µM); 1.06 in the test with C. auris AR-387 (1 µM); 0.96 in the test on C. auris AR-387 (10 µM).

As to `CC/C(=C(\c1ccccc1)c1ccc(OCCN(C)C)cc1)c1ccccc1` [Tamoxifen], the growth is 0.69 in the test with C. auris AR-384 (1 µM); 1.17 in the test with C. auris AR-384 (10 µM); 1.04 in the test on C. auris AR-386 (1 µM); 0.84 in the test on C. auris AR-386 (10 µM); 0.87 in the test on C. auris AR-387 (1 µM); 0.89 in the test with C. auris AR-387 (10 µM).

For `Cc1cn([C@H]2C[C@H](N=[N+]=[N-])[C@@H](CO)O2)c(=O)[nH]c1=O` [Zidovudine], the growth with C. auris AR-384 (1 µM) was 0.9; in the test with C. auris AR-384 (10 µM), 0.74; in the test with C. auris AR-386 (1 µM), 1; with C. auris AR-386 (10 µM), 1.02; in the test on C. auris AR-387 (1 µM), 0.71; in the test with C. auris AR-387 (10 µM), 1.04.

As to `Cc1noc(NS(=O)(=O)c2ccc(N)cc2)c1C` [Sulfisoxazole], the growth in the test with C. auris AR-384 (1 µM) was 1.02; in the test with C. auris AR-384 (10 µM), 1.08; with C. auris AR-386 (1 µM) it was 1.18; in the test on C. auris AR-386 (10 µM), 1.03; with C. auris AR-387 (1 µM), 0.66; in the test on C. auris AR-387 (10 µM) it was 0.76.

Take `CC(=O)OCC(=O)[C@@]1(O)CC[C@H]2[C@@H]3CCC4=CC(=O)CC[C@]4(C)[C@@]3(F)[C@@H](O)C[C@@]21C` [Fludrocortisone acetate]: the growth stood at 1 in the test with C. auris AR-384 (1 µM); 0.77 in the test on C. auris AR-384 (10 µM); 1.09 in the test on C. auris AR-386 (1 µM); 0.76 in the test on C. auris AR-386 (10 µM); 0.87 in the test on C. auris AR-387 (1 µM); 0.83 with C. auris AR-387 (10 µM).

`CN(Cc1cc(Br)cc(Br)c1N)C1CCCCC1` [Bromhexine HCl]: the growth in the test on C. auris AR-384 (1 µM) amounted to 0.77; in the test on C. auris AR-384 (10 µM) it was 1.07; with C. auris AR-386 (1 µM) it was 0.76; in the test on C. auris AR-386 (10 µM), 0.96; in the test with C. auris AR-387 (1 µM), 1.03; with C. auris AR-387 (10 µM), 0.81.

Regarding `CCC1(c2ccccc2)C(=O)NCNC1=O` [Primidone], the growth with C. auris AR-384 (1 µM) was determined as 0.85; in the test on C. auris AR-384 (10 µM), 0.89; in the test with C. auris AR-386 (1 µM), 0.6; with C. auris AR-386 (10 µM), 0.82; in the test with C. auris AR-387 (1 µM), 0.82; in the test with C. auris AR-387 (10 µM), 0.8.

Consider `CC(=O)OCC[N+](C)(C)C` [Acetylcholine Chloride], for which the growth came to 0.71 in the test on C. auris AR-384 (1 µM); 1.49 in the test on C. auris AR-384 (10 µM); 0.88 in the test on C. auris AR-386 (1 µM); 1.23 in the test with C. auris AR-386 (10 µM); 0.74 in the test with C. auris AR-387 (1 µM); 0.81 with C. auris AR-387 (10 µM).

Take `Oc1c(Cl)cc(Cl)c(Cl)c1Cc1c(O)c(Cl)cc(Cl)c1Cl` [Hexachlorophene]: the growth came to 0.65 with C. auris AR-384 (1 µM); 0.44 in the test with C. auris AR-384 (10 µM); 0.67 in the test with C. auris AR-386 (1 µM); 0.74 in the test with C. auris AR-386 (10 µM); 0.68 in the test on C. auris AR-387 (1 µM); 0.44 with C. auris AR-387 (10 µM).

Take `Nc1nc(=O)c2c([nH]1)NCC(CNc1ccc(C(=O)N[C@@H](CCC(=O)O)C(=O)O)cc1)N2C=O` (stereo not given in full) [Leucovorin Calcium Pentahydrate]: the growth in the test on C. auris AR-384 (1 µM) came to 0.62; in the test with C. auris AR-384 (10 µM), 0.78; in the test on C. auris AR-386 (1 µM) it was 0.62; with C. auris AR-386 (10 µM), 1.07; with C. auris AR-387 (1 µM), 0.77; in the test on C. auris AR-387 (10 µM), 0.78.

For the molecule `O=C1CN2Cc3c(ccc(Cl)c3Cl)N=C2N1` [Anagrelide HCl], the growth in the test with C. auris AR-384 (1 µM) was determined as 0.98; in the test on C. auris AR-384 (10 µM), 0.94; in the test on C. auris AR-386 (1 µM), 0.83; with C. auris AR-386 (10 µM), 0.98; with C. auris AR-387 (1 µM) it was 0.75; in the test on C. auris AR-387 (10 µM), 0.86.

On to `COC(=O)[C@@H]1[C@H]2C[C@H]3c4[nH]c5ccccc5c4CCN3C[C@@H]2CC[C@@H]1O` [Yohimbine HCl], for which the growth with C. auris AR-384 (1 µM) worked out at 0.93; in the test on C. auris AR-384 (10 µM) it was 1.25; in the test on C. auris AR-386 (1 µM), 1.13; with C. auris AR-386 (10 µM), 1.42; with C. auris AR-387 (1 µM), 1.36; with C. auris AR-387 (10 µM), 1.49.

`COc1cc(OC)c(C(=O)CCCN2CCCC2)c(OC)c1` [Buflomedil HCl]: the growth in the test on C. auris AR-384 (1 µM) was 0.96; with C. auris AR-384 (10 µM), 1.02; in the test with C. auris AR-386 (1 µM) it was 1.07; in the test with C. auris AR-386 (10 µM) it was 1.01; in the test on C. auris AR-387 (1 µM), 1.19; in the test on C. auris AR-387 (10 µM), 1.05.

With `C[C@@H]1C/C=C/C=C/C=C/C=C/[C@H](O[C@@H]2O[C@H](C)[C@@H](O)[C@H](N)[C@@H]2O)C[C@@H]2O[C@](O)(C[C@@H](O)C[C@H]3O[C@@H]3/C=C/C(=O)O1)C[C@H](O)[C@H]2C(=O)O` [Natamycin], the growth in the test with C. auris AR-384 (1 µM) is 1.04; with C. auris AR-384 (10 µM), 1.19; with C. auris AR-386 (1 µM) it was 1.28; in the test on C. auris AR-386 (10 µM), 0.93; with C. auris AR-387 (1 µM) it was 0.87; in the test on C. auris AR-387 (10 µM), 0.91.

Consider `CCC(=O)c1c(O)cc(O)cc1O` [Flopropione], for which the growth in the test with C. auris AR-384 (1 µM) was found to be 0.97; in the test with C. auris AR-384 (10 µM), 0.78; in the test on C. auris AR-386 (1 µM), 0.89; with C. auris AR-386 (10 µM), 1.04; with C. auris AR-387 (1 µM) it was 0.88; with C. auris AR-387 (10 µM) it was 1.03.

Consider `CCCc1ncc(C[n+]2ccccc2C)c(N)n1` [Amprolium HCl], for which the growth in the test with C. auris AR-384 (1 µM) was 0.93; in the test with C. auris AR-384 (10 µM), 1.09; in the test with C. auris AR-386 (1 µM), 0.88; with C. auris AR-386 (10 µM) it was 1.04; with C. auris AR-387 (1 µM) it was 0.83; in the test with C. auris AR-387 (10 µM) it was 1.08.

Turning to `O=C(O)CCC(=O)c1ccc(-c2ccccc2)cc1` [Fenbufen], the growth is 0.85 in the test on C. auris AR-384 (1 µM); 0.63 in the test on C. auris AR-384 (10 µM); 1.07 in the test with C. auris AR-386 (1 µM); 0.76 in the test on C. auris AR-386 (10 µM); 0.88 with C. auris AR-387 (1 µM); 0.93 in the test with C. auris AR-387 (10 µM).

With `CCCCCCCCCCCCCCCCOP(=O)([O-])OCC[N+](C)(C)C` [Miltefosine], the growth came to 0.71 with C. auris AR-384 (1 µM); 0.13 in the test on C. auris AR-384 (10 µM); 0.98 with C. auris AR-386 (1 µM); 0.03 in the test on C. auris AR-386 (10 µM); 1.12 with C. auris AR-387 (1 µM); 0.63 with C. auris AR-387 (10 µM).

As for `COc1ccc2[nH]c([S+]([O-])Cc3ncc(C)c(OC)c3C)nc2c1` (stereo not given) [Omeprazole], the growth in the test on C. auris AR-384 (1 µM) came to 0.91; in the test with C. auris AR-384 (10 µM), 0.99; with C. auris AR-386 (1 µM), 1.24; in the test on C. auris AR-386 (10 µM), 1.24; in the test with C. auris AR-387 (1 µM), 1.17; with C. auris AR-387 (10 µM) it was 1.05.
